Consider one compound from PMC7913210 (Pharmaceutics, 2021).

Like-named read-outs stand apart in the source and are kept apart here.

The nature of data set [1]: Parent-metabolite PK model (non-linear mixed-effect modeling) after SC LHA administration. It is filed as in vivo, Sprague-Dawley rats. As to conditions: rats; for Km: Sprague-Dawley, rat, plasma, sc. The procedure:
In addition, a combined transit model with first-order absorption was evaluated to better describe absorption phase. In the transit model, the optimal number of transit compartments (NTR) and the mean transit time (MTT) were estimated. The transit model introduced three parameters—Ktr, NTR, and MTT. Two of these three parameters were estimated. The relationship of these parameters is shown in the following equation: MTT= (NTR+1)/Ktr The inter-individual variability (IIV) was assessed using an exponential variability model as following equation: Pi=Ptv ×exp (ETA) where Pi represents the value of the individual PK parameter, Ptv is a typical value for P, and ETA indicates an interindividual random effect with the mean of zero and variance of ω^2. Residual random variability (ε) was calculated using a proportional error model for the three types of observations. Optimal model selection was guided by changes in diagnostic values including twice the negative log like (−2LL), Akaike information Criterion (AIC), Baysian Information Criteria (BIC), visual inspection of various diagnostic plots (goodness of fit plot), and precision of parameter estimates. The visual predictive check (VPC) and boot strap analysis was conducted for non-parametric evaluation of the model. Graphical diagnostics including basic goodness-of-fit plot and other accessory plots were used for single run-based diagnostics during model development. For the final model, the robustness and predictive performance were evaluated using multiple run-based diagnostics such as bootstrapping. A bootstrap procedure was conducted with a total of 1000 bootstrap-resampled datasets from the original dataset. Bootstrap results of median and 95% confidence intervals (CIs, […]) were compared with final parameter estimates. The 95% confidence intervals of parameters obtained from this step were compared with final parameter estimates.

A further data set has as its system rat liver microsome. As to conditions: read-out: in vitro Km for the metabolism of lidocaine to MEGX, ref 35 (Deshpande et al.); cited from earlier work.
Another data set relates to rat olfactory microsomes. The note with it: read-out: in vitro Km for the metabolism of lidocaine to MEGX, ref 35 (Deshpande et al.); cited from earlier work.

For `CCN(CC)CC(=O)Nc1c(C)cccc1C` [Lidocaine], the Km (as a rule, the substrate concentration at which the rate is half of its maximum) is 137 µM in data set [1] (estimated Km value in vivo for the metabolism of lidocaine to MEGX, developed model); 137 µM in data set [1] (Michaelis-Menten elimination of lidocaine, model estimate, read-out: Km, Michaelis-Menten constant); 304 µM in the data set on rat liver microsome; 157 µM in the data set with rat olfactory microsomes. The “Fm1, Fraction of the parent converted to first metabolite” value in data set [1] (lidocaine to MEGX, model estimate) was 0.65. Also, the “Fr, Fraction of the dose absorbed by first-order absorption” value in data set [1] (model estimate (fixed effect)) is recorded as 0.373.
